Test results reported in article PMC6921068.
These are yes or no findings as the source states them, for the method shown. Binding seen in cells or lysates may run through a third protein. Some results given as binding are weak or reduced against the parent protein; the word gives no strength.

The chains behind the UniProt entries cited, without tags or fusion partners.
UniProt P26431: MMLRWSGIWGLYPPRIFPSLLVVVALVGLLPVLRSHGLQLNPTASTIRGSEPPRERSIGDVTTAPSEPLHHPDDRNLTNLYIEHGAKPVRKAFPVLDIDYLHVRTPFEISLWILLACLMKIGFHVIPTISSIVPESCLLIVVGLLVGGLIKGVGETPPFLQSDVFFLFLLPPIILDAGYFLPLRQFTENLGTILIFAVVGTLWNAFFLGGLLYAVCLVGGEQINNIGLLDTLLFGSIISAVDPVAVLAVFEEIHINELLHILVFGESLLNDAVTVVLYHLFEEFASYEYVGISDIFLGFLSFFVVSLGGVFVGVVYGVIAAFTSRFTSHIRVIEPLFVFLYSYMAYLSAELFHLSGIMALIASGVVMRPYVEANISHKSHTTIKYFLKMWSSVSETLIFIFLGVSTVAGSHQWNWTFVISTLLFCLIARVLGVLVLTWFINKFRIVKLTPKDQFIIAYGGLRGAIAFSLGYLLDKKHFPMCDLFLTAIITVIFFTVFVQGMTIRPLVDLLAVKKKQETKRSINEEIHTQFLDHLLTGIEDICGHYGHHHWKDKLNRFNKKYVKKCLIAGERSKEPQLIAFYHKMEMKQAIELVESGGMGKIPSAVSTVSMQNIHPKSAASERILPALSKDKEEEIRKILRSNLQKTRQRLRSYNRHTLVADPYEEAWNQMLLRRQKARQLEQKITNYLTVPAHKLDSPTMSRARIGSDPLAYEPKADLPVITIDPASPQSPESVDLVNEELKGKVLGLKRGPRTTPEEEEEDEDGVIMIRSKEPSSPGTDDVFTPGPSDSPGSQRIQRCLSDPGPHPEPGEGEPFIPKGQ
UniProt P27139: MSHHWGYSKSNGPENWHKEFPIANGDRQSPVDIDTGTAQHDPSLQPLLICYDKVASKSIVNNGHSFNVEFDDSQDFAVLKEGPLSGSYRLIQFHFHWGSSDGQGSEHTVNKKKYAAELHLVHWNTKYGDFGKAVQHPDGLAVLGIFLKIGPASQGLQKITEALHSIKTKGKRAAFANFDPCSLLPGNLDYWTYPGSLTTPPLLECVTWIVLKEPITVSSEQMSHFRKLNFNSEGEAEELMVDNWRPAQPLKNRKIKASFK

B1: carbonic anhydrase I (enzyme, UniProt B0BNN3 1-261)
chain: MASADWGYDSKNGPDQWSKLYPIANGNNQSPIDIKTSEAKHDSSLKPVSVSYNPATAKEIVNVGHSFHVVFDDSSNQSVLKGGPLADSYRLTQFHFHWGNSNDHGSEHTVDGAKYSGELHLVHWNSAKYSSAAEAISKADGLAIIGVLMKVGPANPNLQKVLDALSSVKTKGKRAPFTNFDPSSLLPSSLDYWTYFGSLTHPPLHESVTWVICKESISLSPEQLAQLRGLLSSAEGEPAVPVLSNHRPPQPLKGRTVRASF
B2: carbonic anhydrase IV (enzyme, UniProt P48284 18-281)
chain: EDSHWCYEIQAKEPNSHCSGPEQWTGDCKKNQQSPINIVTSKTKLNPSLTPFTFVGYDQKKKWEVKNNQHSVEMSLGEDIYIFGGDLPTQYKAIQLHLHWSEESNKGSEHSIDGKHFAMEMHVVHKKMTTGDKVQDSDSKDKIAVLAFMVEVGNEVNEGFQPLVEALSRLSKPFTNSTVSESCLQDMLPEKKKLSAYFRYQGSLTTPGCDETVIWTVFEEPIKIHKDQFLEFSKKLYYDQEQKLNMKDNVRPLQPLGNRQVFRS

These molecules were tested against Na-H exchanger-1 (rat (endogenous in colon)) (UniProt P26431) (assay: co-IP; uninflamed (control) rat colon tissue lysates solubilized with triton X-100; NHE-1-specific antibodies 1:100, Protein-G sepharose beads; blots with CA isoform-selective antibodies).
With “carbonic anhydrase II (from UniProt P27139 1-260) (enzyme)” the binding was “binds”.
In the case of B1, the binding is reported as “binds”.
B2 was tested, and the binding was “no binding”.
